Laboratory results from PubChem BioAssay AID1794844 (National Center for Advancing Translational Sciences (NCATS), 2023).
The whole screen tested about 2,800 compounds, of which fewer than 10 were called active. Another 7% or so got no clear call; they are omitted. The call rests on the fitted dose curve; in most records, active means well fitted inhibition curve with a large enough effect; inconclusive means small, poorly fitted or top-dose-only effect; inactive means no such curve, though single readings can be large or run the other way. This is one part of the list.

Sequences of proteins named here, by UniProt entry; tags and fusion partners are left off. A change or cut given only in a name is not applied to a line headed by its entry.
UniProt C7C422: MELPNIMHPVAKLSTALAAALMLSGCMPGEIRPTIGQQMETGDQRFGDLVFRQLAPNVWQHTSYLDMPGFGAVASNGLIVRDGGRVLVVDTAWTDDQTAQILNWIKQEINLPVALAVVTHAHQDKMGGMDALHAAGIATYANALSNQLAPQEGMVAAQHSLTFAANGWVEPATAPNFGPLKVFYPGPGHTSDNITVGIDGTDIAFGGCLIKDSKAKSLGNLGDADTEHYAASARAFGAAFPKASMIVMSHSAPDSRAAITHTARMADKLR

biological target: Metallo-beta-lactamase type 2 (Klebsiella pneumoniae) (UniProt C7C422); assay: qHTS to identify inhibitors of the New Delhi Metallo-beta-lactamase (NDM): Nitrocefin screen against the machine-based learning selections.; further: % of control where 0% means no effect; details: NDM-1 enzyme, nitrocefin hydrolysis, absorbance 485 nm; activity, negative = inhibition: at the top concentration
How it was run: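 Hydrolysis by 2 nM NDM-1 was followed by absorbance after >30 min compound preincubation in HEPES pH 7.0 buffer with 1 uM Zn2SO4. For nitrocefin (16.7 uM, 15 min, 485 nm) and meropenem (50 uM, 30 min, 300 nm), each substrate ran on separate plates.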

activity, negative = inhibition, inactive:
Cc1ccc2c(c1)SCC(=O)N2CC(=O)N(C)Cc1ccoc1 -3.58%
O=C1N(C2CCOCC2)C[C@H]2CN(Cc3ccccc3F)CCN12 2.63% [at 57.5 µM]
NC(=O)Cc1c[nH]c2ncc(-c3cccc(OC(F)(F)F)c3)cc12 6.36% [at 57.5 µM]
CC(C)C[C@@H](NC(=O)C1=C[C@@H](NC(=O)c2cnccn2)[C@@H](O)[C@H](O)C1)C(N)=O -1.3% [at 57.5 µM]
COc1ccc(-c2nnc([C@H]3CCN(c4ncccn4)C3)o2)cc1 0.508% [at 57.5 µM]
COc1ccc(CN2CCNc3cnc(Nc4cccnc4)cc3C2)cc1O 3.06% [at 57.5 µM]
Cc1cc(C)n(Cc2c(C(=O)NCC34CCC=C3N(C)C(=O)CC4)noc2C)n1 (centres undefined) -4%
CCN(CC)CC[C@H]1CN(C(=O)NC2CCCCC2)CC[C@H]1CC(=O)O -2.93% [at 57.5 µM]
COc1ccc(C(=O)N2C[C@@H]3OCC(=O)N(CC4CC4)[C@@H]3C2)cc1 -3.26% [at 57.5 µM]
Cc1ccccc1[C@H]1C[C@@H](O)[C@@H](O)[C@@H]1NC(=O)c1c(-c2ccccc2)noc1C 7.56% [at 57.5 µM]
COCCN(C)C[C@@H]1CN(C(=O)c2cc3ccccc3n(C)c2=O)C[C@@H]1CO -3.85%
Cn1cc(C(NC(=O)c2cnc(N)nc2-c2ccccc2)C2CC(O)C2)cn1 (centres undefined) 1.03%
NC(=O)[C@@H]1CCCN1C(=O)c1ccc2oc(-c3cccc(F)c3)nc2c1 -3.39%
CN(C)c1cccc(C(=O)N2CCCC(n3cc(-c4nc(C5CC5)no4)nn3)C2)c1 (centres undefined) 2.17%
Cc1ccccc1C(CC(=O)NCc1cccnc1)c1ccccc1 (centres undefined) -3.05%
COc1ccc2[nH]cc(CCNC(=O)C3(Cc4cccnc4)CCCCC(=O)N3)c2c1 (centres undefined) 1.89%
NC(=O)c1csc(S(=O)(=O)N2CCC(CO)(CN3CCCC3)CC2)c1 -2.83%
CCN1CCCC2(CCN(C(=O)NCCc3ccccc3F)C2)C1=O (centres undefined) -2.96%
COc1ccc2c(c1)CN(C(=O)c1cccc(C#N)c1)CC[C@H]1COC(=O)N21 -1.91% [at 57.5 µM]
CC(C)C[C@@H](NC(=O)C1=C[C@@H](NC(=O)Cc2cccs2)[C@@H](O)[C@H](O)C1)C(N)=O -13.3% [at 57.5 µM]
COc1ccc(CN[C@H]2C[C@H]3C(=O)NC[C@@H](CCC(=O)NCc4ccc(F)cc4)N3C2)cc1 3.62%
CNc1cc(C)nc(N2C[C@H]3CN(C(=O)N(C)C)C[C@@]3(C(=O)O)C2)n1 -14.6%
COCc1noc([C@@H]2CC(F)(F)CN2C(=O)c2occc2C)n1 -2.73%
COc1cccc(NC(=O)COc2cccc(-c3nnc4n3CCCC4)c2)c1 -5.08%
O=C(Cc1ccccc1)Nc1ccc([C@@H](O)[C@H]2COCC(=O)N2CC2CC2)cc1 -3.52% [at 57.5 µM]
Cn1ccc2c(C(=O)NCc3cccnc3)nc(Nc3ccccc3)cc21 -14.7% [at 57.5 µM]
O=C(NC[C@H]1OC[C@@H](NCc2cnc[nH]2)[C@@H]1O)C1CCCC1 11.5% [at 57.5 µM]
COC[C@@H]1CN(C(=O)c2cncc(C)c2)C[C@H]1C(N)=O 1.39%
CCc1cc(C(=O)N[C@H](c2ccc(OC)nc2)C2CC(O)C2)ccn1 (some centres undefined) -0.196%
O=C(CCCc1ccccc1)NCC(=O)N1CCCCCCNC(=O)CC1c1ccccc1 (centres undefined) -0.154%
O[C@@H]1C[C@@H](c2nc(-c3ccc4c(c3)OCO4)no2)N(Cc2cc3ccccc3o2)C1 2.13% [at 57.5 µM]
CN1C(=O)COC[C@@H]1[C@H](O)c1ccc(NC(=O)c2ccc(F)cc2)cc1 8.82% [at 57.5 µM]
COc1ccc2[nH]c(C(=O)N[C@H]3COC[C@H]3Cc3cc(C)no3)c(C)c2c1 3.51%
Cc1nc(NCCc2ccn[nH]2)cc(C2CC(O)C2)n1 (centres undefined) 0.241%
CCOc1cc(=O)n2c(c1C(=O)Nc1ccc(C)cc1)CCCC2 0.632%
Cc1ccc(CN2CCC[C@H]2c2nc(-c3ccc(OC4CCCCC4)nc3)no2)cc1 -7.57% [at 57.5 µM]
Cn1cnc2cc(-c3ccc(CO)cc3)cc(C(=O)NCc3cccnc3)c21 -1.39% [at 57.5 µM]
CC(C)C[C@@H]1N[C@H](C(=O)NC2CC2)Cc2cn(Cc3nccn3C)c3cccc1c23 -3.02% [at 57.5 µM]
O=C(c1ccsc1)N1CCCn2cc(-c3ccccc3F)nc21 4.12%
Cc1cc(=O)[nH]c(NCCNC(=O)c2cccc(CCC(C)(C)O)c2)n1 -3.4%
COc1ccc(NC(=O)c2ccc3c(c2)N(C)C2CCCCN2C3=O)cc1Cl (centres undefined) 1.22%
CC(C)CN(Cc1cccnc1)C1CN(S(=O)(=O)Cc2ccccc2F)C1 -1.28%
COc1ccc2nc(C[C@@H]3C[C@@H](C(C)C)[C@H](CNC(=O)Nc4ccc(F)cc4)C=C3C)[nH]c2c1 -10.1%
O=C(NCCc1ccccc1)c1cnc2n[nH]c(-c3ccccc3)c2n1 -10.9% [at 57.5 µM]
Cc1ccc(NC(=O)N2CCCC(c3nnc(CN(C)C)n3C)C2)cc1C (centres undefined) -9.64%
NC(=O)[C@H](CC1CCCCC1)NC(=O)[C@@H]1CN(C(=O)c2cccnc2)CCN1C(=O)C1CCNCC1 -6.08%
O=C(Cn1ccn2nc(-c3ccc(F)cc3)c(CO)c2c1=O)N1CCCCCC1 1.4%
CC(O)CNS(=O)(=O)c1cccc(C(=O)Nc2cccc3c2CCC3)c1 (centres undefined) 3.93%
CC(Cc1cccnc1)NC(=O)c1cn(Cc2ccccc2C(F)(F)F)nn1 (centres undefined) 0.67%
CN1[C@@H](CCC(=O)Nc2ccccc2)CNC(=O)[C@@H]2[C@H]1CCN2Cc1ccc(S(C)(=O)=O)cc1 -0.494%
NS(=O)(=O)c1ccc(CCNCC2(O)CNCCOC2)cc1 (centres undefined) -3.95%
CCN(CC)C(=O)[C@@H]1CCC[C@@H](NC2CCC2)CN(C)C(=O)C1 1.39% [at 57.5 µM]
O=C(CCCc1ccccc1)N[C@@H]1CN(c2ccncn2)C[C@H]1CO -4.2%
O=C1CCC2(CCN(C/C=C/c3ccccc3)CC2)CN1CCCn1ccnc1 8.89%
O=C(O)c1ccnc(-c2ccnc(NCCc3noc(C4CCC4)n3)n2)c1 2.13%
c1cncc(Nc2cc3c(cn2)CN(Cc2ccsc2)CCN3)c1 5.1% [at 57.5 µM]
CCc1ccc(-c2nc(C3CC(=O)N(c4ccc(C)cc4)C3)no2)cc1 (centres undefined) -5.26%
CC1(C(=O)Nc2ccc(C(N)=O)cc2)CCCc2cnc(Nc3ccccc3)nc21 (centres undefined) 8.31% [at 57.5 µM]
O=C([C@H]1O[C@H](CCN2C[C@@H]3C[C@H](C2)c2cccc(=O)n2C3)CC[C@@H]1O)N1CCN(c2ccccc2)CC1 -5.46%
CC(C)(CC(=O)O)CC(=O)N1CCN2C(=O)c3cc(-c4ccc(Cl)cc4)ccc3NC(=O)[C@H]2C1 -9.09%
O=C(O)[C@@H]1CN(C(=O)CCc2cccc(Cl)c2)C[C@H]1c1cccc(F)c1 8.24%
COc1ccc(CN2CCNc3cc(Nc4cccnc4)ncc3C2)cc1O 8.69% [at 57.5 µM]
Oc1cccc(-c2cc(-c3cccnc3)c3cncn3c2)c1 11% [at 76.7 µM]
O=C(c1cnccn1)N1CC[C@H]2COC(=O)N2c2cc(F)ccc2C1 -8.33% [at 57.5 µM]
COc1cccc(CN2CCCC3(CCN(C(=O)c4ccc(OC)nc4OC)C3)C2)c1 (centres undefined) -9.72%
CN1CCCC2(CCN(S(=O)(=O)c3ccc(F)c(F)c3F)C2)C1=O (centres undefined) -2.36%
NC1CCN(C(=O)C2CCCN(c3nc(-c4ccccc4)nc4c3CCC4)C2)CC1 (centres undefined) 3.18%
Cn1cc(CNC(=O)C[C@@H]2C[C@H]3O[C@H](CNCc4ccccc4OC(F)(F)F)[C@@H](O)[C@H]3O2)cn1 -4.33%
COC(=O)c1ccc2nc(C[C@@H]3C[C@@H](C(C)C)[C@H](CNCc4ccccc4F)C=C3C)[nH]c2c1 -0.818%
CCN1CCC(CC(=O)N2CCCC3(C=Cc4ccccc4O3)CC2)CC1 (centres undefined) 1.81%
CC1(C)C[C@H](NCc2ccc(CO)o2)[C@@]2(CCC(=O)N3CCOCC3)CC[C@](C)(O)C[C@@H]12 0.154%
O=C([C@H]1CCC[C@@H](O)C1)N1CCN(Cc2ccc(C(F)(F)F)cc2)CC1 -3.88%
CN1C(=O)COC[C@@H]1[C@H](O)c1ccc(NC(=O)c2ccc3c(c2)OCO3)cc1 0.218% [at 57.5 µM]
Cc1cc(=O)n(CC(=O)Nc2cccc(C(C)C)c2)c(N2CCOCC2)n1 3.04%
CC1(C(=O)Nc2ccncc2)CCCc2cnc(Nc3ccccc3)nc21 (centres undefined) 1.51% [at 57.5 µM]
O=C(NCc1cnccn1)c1nc(-c2ccccc2)cc2[nH]ccc12 5% [at 57.5 µM]
CC1=C[C@@H](CNC(=O)c2cncnc2)[C@H](C(C)C)C[C@H]1CC(=O)N(C)Cc1ccccc1 -2.08% [at 57.5 µM]
CC(=O)N1CCN(c2cc(-c3noc([C@@H]4CCCN4Cc4ccc(C(F)(F)F)cc4)n3)ccn2)CC1 -1.32%
CNC(=O)[C@@H](Cc1ccccc1)N1CCC[C@H]1C(=O)NC1CCOCC1 -20.8% [at 57.5 µM]
Cc1ccccc1NC(=O)Cn1c(-c2cccc(Cl)c2)nc(C)c(CCO)c1=O 16.6%
COc1ccccc1-c1[nH]nc2ncc(-c3ccccc3O)nc12 1.8% [at 57.5 µM]
O=C(O)c1ccc(CN2CC[C@@H](c3ccc4ccccc4c3)[C@H](O)C2)cc1 3.48%
CC(C)C1C(=O)N(C)CCN1C(=O)c1cc(COc2cccc(F)c2)[nH]n1 (centres undefined) -6.59%
CC1=C[C@@H](CNC(=O)CC(C)(C)CC(=O)O)[C@H](C(C)C)C[C@H]1Cc1nc2ccccc2n1C -7.02%
Brc1ccc(CN2CCC(c3nc4ccncc4[nH]3)C2)cc1 (centres undefined) 6.95%
O=C(c1cccc(O)c1)N1CCNc2cnc(Nc3cccc(F)c3)nc2C1 -1.19% [at 57.5 µM]
COCCn1nc2n(c1=O)CCN(S(=O)(=O)c1c(C)nn(C)c1C)CC2 -2.42%
COc1ccc(S(=O)(=O)N2C[C@@H](F)C[C@H]2C(=O)N2CCCCC2)cc1OC -1.97%
O=C(O)c1cc(-c2cccc(CO)c2)cc(S(=O)(=O)NC2CCCC2)c1 -4.47%
COCCOc1ncccc1-c1noc([C@@H]2CCCN2C2CCN(C)CC2)n1 -1.06% [at 57.5 µM]
Cc1ccccc1-c1cnc2[nH]cc(CC(=O)NCCN3CCOCC3)c2c1 1.35% [at 57.5 µM]
CN1C[C@@H](NC(=O)c2ccccn2)C[C@H]1c1nc(-c2ccc(Cl)cc2)no1 2.39% [at 57.5 µM]
O=C(O)c1cc(-c2ccccc2CO)cc(S(=O)(=O)N2CCCCCC2)c1 5.45%
O=C(O)C[C@@H]1CCN(S(=O)(=O)c2ccccc2)C[C@@H]1CCN1CCN(c2cccc(C(F)(F)F)c2)CC1 -10.8%

Arranged by molar mass (ascending): some entries from above.
activity, negative = inhibition, inactive:
O=C(NC[C@H]1OC[C@@H](NCc2cnc[nH]2)[C@@H]1O)C1CCCC1 11.5% [at 57.5 µM]
COCCN(C)C[C@@H]1CN(C(=O)c2cc3ccccc3n(C)c2=O)C[C@@H]1CO -3.85%
Cc1ccccc1[C@H]1C[C@@H](O)[C@@H](O)[C@@H]1NC(=O)c1c(-c2ccccc2)noc1C 7.56% [at 57.5 µM]
CC(C)C[C@@H](NC(=O)C1=C[C@@H](NC(=O)Cc2cccs2)[C@@H](O)[C@H](O)C1)C(N)=O -13.3% [at 57.5 µM]
